Experimental data taken from the supplement of paper PMC10849652.
The other results are listed elsewhere or left out.

Chains of the proteins cited; added tags and fusions are not shown. Lines headed by an entry give the natural chain unless they say otherwise; changes in a name come on top.
UniProt P81877: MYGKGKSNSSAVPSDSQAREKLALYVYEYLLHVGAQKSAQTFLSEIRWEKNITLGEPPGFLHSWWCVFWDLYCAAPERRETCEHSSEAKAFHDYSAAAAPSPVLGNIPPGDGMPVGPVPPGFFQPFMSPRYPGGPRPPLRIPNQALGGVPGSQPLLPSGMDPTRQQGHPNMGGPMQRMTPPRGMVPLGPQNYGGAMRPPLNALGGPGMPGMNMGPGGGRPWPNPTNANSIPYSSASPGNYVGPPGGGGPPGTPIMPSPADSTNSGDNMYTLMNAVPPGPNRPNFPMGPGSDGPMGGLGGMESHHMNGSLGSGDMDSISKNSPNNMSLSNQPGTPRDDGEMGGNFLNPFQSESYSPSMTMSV
UniProt P22528: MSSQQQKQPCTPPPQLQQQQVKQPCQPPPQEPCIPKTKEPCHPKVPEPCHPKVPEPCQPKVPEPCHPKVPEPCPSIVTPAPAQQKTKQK
UniProt O94768: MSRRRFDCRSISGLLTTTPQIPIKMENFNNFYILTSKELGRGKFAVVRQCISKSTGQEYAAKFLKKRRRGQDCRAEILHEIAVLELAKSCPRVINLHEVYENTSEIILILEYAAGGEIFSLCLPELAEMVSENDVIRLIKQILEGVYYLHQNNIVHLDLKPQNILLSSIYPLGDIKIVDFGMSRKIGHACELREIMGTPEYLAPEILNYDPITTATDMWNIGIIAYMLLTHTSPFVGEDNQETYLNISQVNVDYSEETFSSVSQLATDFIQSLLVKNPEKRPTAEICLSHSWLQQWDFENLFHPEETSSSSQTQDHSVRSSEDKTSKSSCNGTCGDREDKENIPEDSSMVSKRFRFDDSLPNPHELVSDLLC
UniProt P61647: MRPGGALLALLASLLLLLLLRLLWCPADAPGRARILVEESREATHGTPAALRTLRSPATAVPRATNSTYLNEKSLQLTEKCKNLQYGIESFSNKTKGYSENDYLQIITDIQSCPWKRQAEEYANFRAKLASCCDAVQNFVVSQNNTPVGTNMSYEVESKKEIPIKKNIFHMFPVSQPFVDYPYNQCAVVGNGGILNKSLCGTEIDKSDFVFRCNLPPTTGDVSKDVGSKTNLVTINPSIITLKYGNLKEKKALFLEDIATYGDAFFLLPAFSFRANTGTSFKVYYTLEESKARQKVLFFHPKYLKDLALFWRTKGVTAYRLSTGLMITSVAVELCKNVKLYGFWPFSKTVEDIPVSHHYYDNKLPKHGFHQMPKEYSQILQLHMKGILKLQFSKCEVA
UniProt Q9Y6N5: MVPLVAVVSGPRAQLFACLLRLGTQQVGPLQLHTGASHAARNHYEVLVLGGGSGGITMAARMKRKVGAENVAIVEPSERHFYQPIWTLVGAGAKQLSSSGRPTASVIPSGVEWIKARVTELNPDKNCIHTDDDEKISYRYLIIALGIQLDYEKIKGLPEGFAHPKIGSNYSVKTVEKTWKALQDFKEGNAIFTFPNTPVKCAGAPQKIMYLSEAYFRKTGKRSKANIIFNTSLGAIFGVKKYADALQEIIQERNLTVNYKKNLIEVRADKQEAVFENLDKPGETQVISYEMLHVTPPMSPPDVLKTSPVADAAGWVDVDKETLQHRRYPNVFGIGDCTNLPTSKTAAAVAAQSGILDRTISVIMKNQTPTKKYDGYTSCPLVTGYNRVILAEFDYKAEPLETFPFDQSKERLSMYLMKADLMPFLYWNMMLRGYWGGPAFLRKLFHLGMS
UniProt Q9P246, whole entry, looked up: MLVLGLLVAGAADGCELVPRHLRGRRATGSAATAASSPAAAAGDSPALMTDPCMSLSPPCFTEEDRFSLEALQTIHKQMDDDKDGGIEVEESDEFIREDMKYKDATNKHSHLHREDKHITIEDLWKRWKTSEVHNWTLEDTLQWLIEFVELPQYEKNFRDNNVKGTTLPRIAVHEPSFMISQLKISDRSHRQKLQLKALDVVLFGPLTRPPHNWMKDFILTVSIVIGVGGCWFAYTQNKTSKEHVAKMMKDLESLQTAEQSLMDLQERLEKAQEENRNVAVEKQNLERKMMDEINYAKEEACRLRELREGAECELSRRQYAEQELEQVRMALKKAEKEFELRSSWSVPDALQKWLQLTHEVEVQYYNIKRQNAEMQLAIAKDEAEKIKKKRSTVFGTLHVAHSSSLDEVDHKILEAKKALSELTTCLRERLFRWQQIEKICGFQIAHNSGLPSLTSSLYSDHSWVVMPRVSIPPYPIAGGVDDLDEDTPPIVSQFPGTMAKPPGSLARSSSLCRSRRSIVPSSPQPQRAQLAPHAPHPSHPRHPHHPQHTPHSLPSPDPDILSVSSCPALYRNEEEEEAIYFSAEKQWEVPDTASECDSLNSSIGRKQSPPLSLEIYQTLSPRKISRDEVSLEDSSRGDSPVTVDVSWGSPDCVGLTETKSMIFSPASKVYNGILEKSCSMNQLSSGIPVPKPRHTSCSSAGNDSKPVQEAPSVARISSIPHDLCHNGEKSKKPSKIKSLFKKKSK
UniProt Q9H8P0: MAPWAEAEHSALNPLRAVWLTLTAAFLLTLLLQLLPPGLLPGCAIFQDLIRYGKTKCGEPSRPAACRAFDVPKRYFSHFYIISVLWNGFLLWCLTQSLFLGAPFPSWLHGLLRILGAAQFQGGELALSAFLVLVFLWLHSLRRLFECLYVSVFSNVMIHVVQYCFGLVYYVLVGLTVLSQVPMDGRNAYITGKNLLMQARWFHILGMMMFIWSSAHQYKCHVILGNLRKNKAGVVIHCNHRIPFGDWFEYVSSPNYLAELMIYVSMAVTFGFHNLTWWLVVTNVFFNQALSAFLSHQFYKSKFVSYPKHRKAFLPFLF
UniProt Q13103: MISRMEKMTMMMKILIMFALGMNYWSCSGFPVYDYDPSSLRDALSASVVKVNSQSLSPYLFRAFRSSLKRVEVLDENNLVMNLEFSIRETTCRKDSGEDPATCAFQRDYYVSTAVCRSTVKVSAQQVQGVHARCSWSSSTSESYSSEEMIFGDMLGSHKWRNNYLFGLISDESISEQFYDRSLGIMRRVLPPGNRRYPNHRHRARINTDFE
UniProt Q8N5C6: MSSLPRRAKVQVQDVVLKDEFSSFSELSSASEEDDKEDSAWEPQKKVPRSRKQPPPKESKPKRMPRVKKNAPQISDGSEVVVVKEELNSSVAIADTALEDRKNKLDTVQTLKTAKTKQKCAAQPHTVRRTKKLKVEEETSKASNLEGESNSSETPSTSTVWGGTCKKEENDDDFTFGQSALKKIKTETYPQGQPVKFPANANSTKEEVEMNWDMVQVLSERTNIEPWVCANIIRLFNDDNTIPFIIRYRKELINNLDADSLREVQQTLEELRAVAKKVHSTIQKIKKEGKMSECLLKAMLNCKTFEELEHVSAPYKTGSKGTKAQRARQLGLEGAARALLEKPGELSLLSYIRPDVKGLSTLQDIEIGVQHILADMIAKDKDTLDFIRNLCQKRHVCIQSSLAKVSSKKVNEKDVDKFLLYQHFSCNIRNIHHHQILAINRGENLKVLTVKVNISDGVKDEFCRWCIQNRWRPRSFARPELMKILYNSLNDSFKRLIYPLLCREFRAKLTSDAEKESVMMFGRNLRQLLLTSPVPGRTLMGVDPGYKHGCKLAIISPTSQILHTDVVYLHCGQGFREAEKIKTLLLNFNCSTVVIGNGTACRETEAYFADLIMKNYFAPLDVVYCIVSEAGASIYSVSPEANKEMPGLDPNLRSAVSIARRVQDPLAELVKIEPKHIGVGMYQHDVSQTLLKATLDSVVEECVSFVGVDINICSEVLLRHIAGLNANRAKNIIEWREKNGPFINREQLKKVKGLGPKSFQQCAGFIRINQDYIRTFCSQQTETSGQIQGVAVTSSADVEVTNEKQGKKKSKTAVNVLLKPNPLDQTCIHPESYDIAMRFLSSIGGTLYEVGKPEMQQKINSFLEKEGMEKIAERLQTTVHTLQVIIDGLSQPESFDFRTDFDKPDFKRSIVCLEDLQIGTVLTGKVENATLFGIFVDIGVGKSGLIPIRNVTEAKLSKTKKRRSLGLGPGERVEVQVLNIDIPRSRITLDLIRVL
UniProt Q86XZ4: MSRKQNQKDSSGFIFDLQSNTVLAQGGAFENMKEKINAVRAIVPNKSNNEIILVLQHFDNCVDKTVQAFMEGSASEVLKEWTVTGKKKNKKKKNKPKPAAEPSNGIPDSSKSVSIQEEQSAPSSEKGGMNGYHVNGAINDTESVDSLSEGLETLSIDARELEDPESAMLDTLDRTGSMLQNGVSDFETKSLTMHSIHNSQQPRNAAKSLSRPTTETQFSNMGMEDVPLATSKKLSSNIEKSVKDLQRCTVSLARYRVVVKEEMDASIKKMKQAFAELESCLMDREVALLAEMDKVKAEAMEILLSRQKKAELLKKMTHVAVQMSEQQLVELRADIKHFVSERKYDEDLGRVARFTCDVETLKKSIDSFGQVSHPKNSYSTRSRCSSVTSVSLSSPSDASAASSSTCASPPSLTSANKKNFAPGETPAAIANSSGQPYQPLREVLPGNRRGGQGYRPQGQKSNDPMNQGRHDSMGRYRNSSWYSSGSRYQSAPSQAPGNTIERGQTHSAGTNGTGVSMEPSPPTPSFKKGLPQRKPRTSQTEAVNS
UniProt O75716, whole entry, looked up: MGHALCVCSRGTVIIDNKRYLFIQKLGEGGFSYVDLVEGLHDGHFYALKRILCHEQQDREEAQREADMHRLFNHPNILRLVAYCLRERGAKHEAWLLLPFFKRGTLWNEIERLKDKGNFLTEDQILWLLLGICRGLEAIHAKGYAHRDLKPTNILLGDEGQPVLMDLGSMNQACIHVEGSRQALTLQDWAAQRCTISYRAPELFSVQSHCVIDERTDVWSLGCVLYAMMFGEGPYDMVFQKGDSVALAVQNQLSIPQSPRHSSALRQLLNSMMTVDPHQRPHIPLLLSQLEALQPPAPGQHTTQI
UniProt Q9Y365: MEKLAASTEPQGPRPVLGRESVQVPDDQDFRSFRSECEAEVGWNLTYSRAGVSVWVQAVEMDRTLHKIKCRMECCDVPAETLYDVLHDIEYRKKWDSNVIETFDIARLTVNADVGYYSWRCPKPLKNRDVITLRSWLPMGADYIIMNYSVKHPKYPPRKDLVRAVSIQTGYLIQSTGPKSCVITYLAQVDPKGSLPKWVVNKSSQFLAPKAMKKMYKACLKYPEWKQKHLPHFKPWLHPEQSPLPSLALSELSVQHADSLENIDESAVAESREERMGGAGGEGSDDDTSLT
UniProt P43308: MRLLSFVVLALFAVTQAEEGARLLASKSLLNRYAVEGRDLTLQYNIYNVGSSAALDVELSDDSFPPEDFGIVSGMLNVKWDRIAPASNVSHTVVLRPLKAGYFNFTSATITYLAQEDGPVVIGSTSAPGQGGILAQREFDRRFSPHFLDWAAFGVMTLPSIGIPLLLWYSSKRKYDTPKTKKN
UniProt Q08AE8, whole entry, looked up: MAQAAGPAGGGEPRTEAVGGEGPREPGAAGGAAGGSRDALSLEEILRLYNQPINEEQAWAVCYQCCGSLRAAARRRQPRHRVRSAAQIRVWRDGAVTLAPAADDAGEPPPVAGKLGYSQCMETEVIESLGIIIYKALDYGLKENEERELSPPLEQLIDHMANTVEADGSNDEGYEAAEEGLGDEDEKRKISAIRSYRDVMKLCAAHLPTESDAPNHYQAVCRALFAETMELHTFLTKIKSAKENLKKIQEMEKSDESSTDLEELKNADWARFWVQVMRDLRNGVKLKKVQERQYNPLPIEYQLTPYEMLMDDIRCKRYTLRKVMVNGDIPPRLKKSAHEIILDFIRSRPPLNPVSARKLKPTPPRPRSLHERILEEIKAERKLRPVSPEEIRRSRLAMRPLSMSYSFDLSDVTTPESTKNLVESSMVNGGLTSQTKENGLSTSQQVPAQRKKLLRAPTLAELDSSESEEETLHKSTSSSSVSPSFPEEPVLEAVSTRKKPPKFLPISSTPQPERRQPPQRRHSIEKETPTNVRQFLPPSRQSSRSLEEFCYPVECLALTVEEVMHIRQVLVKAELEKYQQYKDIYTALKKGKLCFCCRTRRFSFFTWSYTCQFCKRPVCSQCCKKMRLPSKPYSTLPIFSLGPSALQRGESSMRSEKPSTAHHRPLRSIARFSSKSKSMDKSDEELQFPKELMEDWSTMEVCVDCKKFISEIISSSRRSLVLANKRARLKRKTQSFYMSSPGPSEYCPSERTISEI
UniProt P35325: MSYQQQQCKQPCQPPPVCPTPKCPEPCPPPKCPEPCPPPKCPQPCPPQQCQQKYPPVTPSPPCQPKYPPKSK
UniProt Q15532, whole entry, looked up: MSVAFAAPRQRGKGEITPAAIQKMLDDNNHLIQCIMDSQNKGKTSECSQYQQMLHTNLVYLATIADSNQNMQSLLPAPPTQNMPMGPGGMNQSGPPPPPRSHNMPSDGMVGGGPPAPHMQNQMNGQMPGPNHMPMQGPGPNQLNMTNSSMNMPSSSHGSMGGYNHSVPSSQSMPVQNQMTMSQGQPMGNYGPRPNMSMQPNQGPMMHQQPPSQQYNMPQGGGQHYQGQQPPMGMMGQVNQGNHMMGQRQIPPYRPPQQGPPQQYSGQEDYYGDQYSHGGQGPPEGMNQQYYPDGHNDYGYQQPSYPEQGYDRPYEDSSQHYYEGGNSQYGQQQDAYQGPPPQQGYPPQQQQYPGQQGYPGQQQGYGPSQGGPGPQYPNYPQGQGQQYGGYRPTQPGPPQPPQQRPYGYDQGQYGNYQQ

What was measured:
Assay in all cases: log2 fold change, soluble protein after heating vs DMSO (PISA); higher = thermal stabilisation; K562 cells, 10 uM, 30 min; active = over 0.2 and 3.5 SD of the protein, either way, in both replicates (recomputed)
[1] = compound: CC1=C(C=C(C=C1)NC(=O)C2=CC(=CC=C2)C(C)(C)C#N)NC3=CC4=C(C=C3)N=CN(C4=O)C
How it was run: (§1)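 Soluble protein was quantified by TMTpro 16plex LC-MS/MS after channel sums were equalised. It was obtained as the supernatant after 21,000xg for 90 min from pooled aliquots of K562 cells (2×10^6 cells/mL, 10 μM compound, 30 min) heated for 3 min across 48°C-58°C and extracted in PBS with 0.5% NP-40 at 4°C. Thermal stability values are relative to control samples and come from duplicates. They are given as log2 fold changes.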

[2] = compound: CC1=CC=C(C=C1)SC2=C3C=C(SC3=CN=C2)C(=O)N
How it was run: as §1

[3] = compound: CCCS(=O)(=O)Nc1ccc(F)c(C(=O)c2c[nH]c3ncc(Cl)cc23)c1F
How it was run: as §1

volasertib = compound: CC[C@@H]1C(=O)N(C)c2cnc(Nc3ccc(C(=O)N[C@H]4CC[C@H](N5CCN(CC6CC6)CC5)CC4)cc3OC)nc2N1C(C)C [volasertib]
How it was run: as §1

[4] = compound: CC1=C(C=C(C=C1)NC(=O)C2=CC(=CC=C2)N(C)C)NC(=O)C3=CC=C(C=C3)O
How it was run: as §1

Nexturastat A = compound: CCCCN(Cc1ccc(C(=O)NO)cc1)C(=O)Nc1ccccc1 [Nexturastat A]
How it was run: as §1

[5] = compound: CCCc1cc(C)[nH]c(=O)c1CNC(=O)c1cc(-c2ccnc(N3CCN(C)CC3)c2)cc2c1cnn2C(C)C
How it was run: as §1

barasertib = compound: CCN(CCCOc1ccc2c(Nc3cc(CC(=O)Nc4cccc(F)c4)[nH]n3)ncnc2c1)CCOP(=O)(O)O [barasertib]
How it was run: as §1

[6] = compound: CC[C@@H]1C(=O)N(C)c2cnc(Nc3ccc(C(=O)NC4CCN(C)CC4)cc3OC)nc2N1C1CCCC1
How it was run: as §1

epoxomicin = compound: CC[C@H](C)[C@@H](C(=O)N[C@@H]([C@@H](C)O)C(=O)N[C@@H](CC(C)C)C(=O)[C@]1(CO1)C)NC(=O)[C@H]([C@@H](C)CC)N(C)C(=O)C [epoxomicin]
How it was run: as §1

[7] = compound: CCn1cc(-c2ccnc3[nH]c(-c4cccc(CN(C)C)c4)cc23)c(-c2ccc(NC(=O)N(C)C)cc2)n1
How it was run: as §1

rosiglitazone = compound: CN(CCOC1=CC=C(C=C1)C[C@H]2C(=O)NC(=O)S2)C3=CC=CC=N3 (racemic) [rosiglitazone]
How it was run: as §1

[8] = compound: CN1CCC(CNc2ccc3ncc(-c4cccc(OC(F)(F)F)c4)n3n2)CC1
How it was run: as §1

vemurafenib = compound: CCCS(=O)(=O)Nc1ccc(F)c(C(=O)c2c[nH]c3ncc(-c4ccc(Cl)cc4)cc23)c1F [vemurafenib]
How it was run: as §1

[9] = compound: CN(C)CC(=O)Nc1ccc2[nH]c(=O)c3ccccc3c2c1
How it was run: as §1

[10] = compound: CC1=NC(=CC=C1)C2=C(N=C(N2)C(C)(C)C)C3=CC4=NC=CN=C4C=C3
How it was run: as §1

givinostat = compound: CCN(CC)Cc1ccc2cc(COC(=O)Nc3ccc(C(=O)NO)cc3)ccc2c1 [givinostat]
How it was run: as §1

[11] = compound: CN1C2=C(C3=C1C(=O)N(N=C3)CC4=CC(=CC=C4)N)SC(=C2)S(=O)C
How it was run: as §1

[12] = compound: CCn1c(C(=O)N(C2CC2)C2CC2)cc2c3c(ncn3C)c(Nc3cc(C)n(C)n3)nc21
How it was run: as §1

[13] = compound: CC[C@H](C)N1C=C(C2=C(C=C(C=C21)C3=CN=C(C=C3)N4CCNCC4)C(=O)NCC5=C(C=C(NC5=O)C)C)C
How it was run: as §1

Measured: log2 fold change

SPHK2 isoform 5 (UniProt Q9NRA0)
inactive: [1] 0.055 | [2] 0.149 | [3] -0.064 | volasertib -0.054

SSBP2 (UniProt P81877)
inactive: [4] -0.036 | [2] 0.056 | Nexturastat A -0.043 | [3] 0.409 | [5] 0.177 | barasertib -0.113 | [6] 0.091 | volasertib -0.294 | epoxomicin 0.118 | [7] 0.135 | rosiglitazone 0.042 | [8] 0.165

SSBP4 (UniProt U3KPY3)
inactive: vemurafenib -0.095 | [5] -0.028 | [9] 0.049

SPRR1B (UniProt P22528)
inactive: [5] 0.07 | [6] -0.124

STK17B (UniProt O94768)
inactive: [10] 0.031 | givinostat 0.16 | barasertib 0.29

STK19 (UniProt P49842)
inactive: [4] 0.236

ST8SIA6 (UniProt P61647)
inactive: [1] -0.125 | [10] -0.354 | vemurafenib -0.266 | barasertib 0.026 | [7] 0.028 | [9] -0.073 | rosiglitazone 0.029 | [8] 0.185

SPATS2L isoform 3 (UniProt Q9NUQ6)
inactive: [1] -0.04 | Nexturastat A 0.545 | epoxomicin -0.401 | [11] 0.335

SRCIN1 (UniProt Q9C0H9)
inactive: [4] 0.035 | vemurafenib 0.107 | givinostat -0.104 | barasertib -0.13 | [12] -0.009 | [7] -0.003 | [9] -0.017 | rosiglitazone -0.332 | [8] -0.265

SRGAP1 (UniProt Q7Z6B7)
inactive: [4] 0.038 | [2] 0.064 | [10] -0.003 | Nexturastat A 0.074 | vemurafenib 0.119 | [3] 0.017 | [5] 0.128 | barasertib 0.047 | volasertib -0.219 | [13] 0.087 | epoxomicin -0.026 | [7] -0.145 | [9] -0.143 | rosiglitazone -0.011 | [8] 0.229

SQOR (UniProt Q9Y6N5)
inactive: [1] -0.099 | Nexturastat A 0.085 | vemurafenib -0.163 | givinostat 0.111 | epoxomicin -0.027 | [12] -0.066 | [7] 0.055 | [9] 0.048 | [11] -0.01 | [8] 0.034

SPRED1 (UniProt Q7Z699)
inactive: [4] -0.176 | Nexturastat A -0.035 | vemurafenib -0.062 | epoxomicin -0.184 | [9] -0.106

SPEN (UniProt Q96T58)
inactive: [4] -0.134 | [2] -0.056 | Nexturastat A 0.089 | vemurafenib 0.005 | [3] -0.071 | [5] 0.06 | givinostat 0.076 | barasertib -0.024 | [6] -0.065 | volasertib 0.051 | [13] -0.013 | epoxomicin 0.073 | [12] -0.023 | [7] 0.019 | [9] -0.043 | rosiglitazone 0.033 | [11] -0.18 | [8] 0.042

STIM2 isoform 2 (UniProt Q9P246)
inactive: [2] 0.001 | Nexturastat A -0.029 | vemurafenib 0.1 | [3] -0.038 | givinostat 0.034 | [6] -0.114 | volasertib -0.426 | [13] -0.044 | epoxomicin 0.092 | [12] 0.044 | [9] 0

SSB (UniProt E7ERC4)
inactive: vemurafenib 0.264 | [5] 0.283 | [7] -0.076 | [9] -0.154 | [11] -0.34 | [8] 0.266

SS18L1 (UniProt O75177)
inactive: [2] -0.172 | [3] -0.016 | volasertib 0.093

SRD5A3 (UniProt Q9H8P0)
inactive: [4] 0.124 | [10] 0.148 | [5] -0.066 | givinostat -0.015 | barasertib -0.207 | [6] -0.277 | [13] -0.046 | [12] 0.019 | [7] 0.073 | rosiglitazone 0.08 | [8] -0.406

SPP2 (UniProt Q13103)
inactive: [1] -0.044 | Nexturastat A 0.055 | vemurafenib 0.104 | givinostat -0.016 | barasertib 0.012 | epoxomicin -0.219 | [12] 0 | [9] -0.034 | rosiglitazone -0.063 | [11] 0.148

SPIN4 (UniProt Q56A73)
inactive: [10] -0.601 | givinostat -0.245

SRBD1 (UniProt Q8N5C6)
inactive: Nexturastat A 0.072 | epoxomicin -0.108 | [7] 0.181 | [8] 0.056

SREBF2 (UniProt Q12772)
inactive: [1] -0.046 | [10] 0.103 | Nexturastat A -0.04 | vemurafenib -0.156 | [5] -0.032 | givinostat 0.085 | barasertib 0.071 | [6] -0.031 | [13] 0.016 | epoxomicin -0.004 | [12] -0.042 | [9] -0.051 | rosiglitazone 0.031

SPATS2 (UniProt Q86XZ4)
inactive: vemurafenib -0.027 | givinostat 0.113 | [6] -0.035 | [12] -0.099 | [7] 0.162 | [9] 0.137 | [11] 0.34 | [8] 0.017

SPTY2D1 (UniProt Q68D10)
inactive: Nexturastat A 0.156 | epoxomicin 0.037

ST3GAL4 isoform 4 (UniProt Q11206)
inactive: [1] -0.004 | Nexturastat A -0.053 | givinostat 0.094 | barasertib 0.037 | [13] -0.083 | epoxomicin -0.052 | [12] -0.004 | rosiglitazone -0.046

STC2 (UniProt O76061)
inactive: [4] 0.073 | [2] -0.142 | vemurafenib 0.15 | [3] -0.118 | givinostat -0.069 | barasertib 0 | volasertib 0.217 | [13] 0.06 | [12] 0.04 | [7] -0.366 | [9] -0.374 | rosiglitazone -0.027 | [8] 0.204

SPICE1 (UniProt Q8N0Z3)
inactive: barasertib 0.074 | [13] -0.286 | [7] 0.038 | rosiglitazone -0.322 | [8] -0.578

STIP1 (UniProt H0YGI8)
inactive: [7] -0.108 | [8] -0.062

STK16 (UniProt O75716)
inactive: [10] 0.141 | Nexturastat A -0.032 | givinostat 0.033 | epoxomicin 0.025 | [12] -0.142

STAR (UniProt P49675)
inactive: [4] 0.041 | vemurafenib -0.095 | [5] -0.299 | [9] 0.144

SSX1 (UniProt Q16384)
inactive: [2] -0.007 | Nexturastat A 0.254 | [3] -0.007 | barasertib 0.032 | volasertib -0.116 | epoxomicin -0.031 | rosiglitazone 0.274

STAB1 (UniProt Q9NY15)
inactive: [4] -0.067 | [2] -0.113 | [10] -0.058 | Nexturastat A 0.188 | vemurafenib -0.001 | [3] -0.236 | [5] -0.149 | givinostat -0.016 | barasertib 0.064 | volasertib -0.154 | epoxomicin -0.2 | [12] -0.143 | [7] 0.209 | [9] 0.034 | rosiglitazone 0.432 | [11] -0.054 | [8] 0.082

STARD10 (UniProt Q9Y365)
inactive: [1] -0.026 | Nexturastat A 0.207 | vemurafenib 0.101 | givinostat 0.094 | [6] -0.034 | epoxomicin 0.29 | [12] 0.065 | [9] 0.305 | [11] -0.03

SREBF1 isoform 4 (UniProt P36956)
active: [5] -0.932
inactive: [10] 0.035 | Nexturastat A 0.063 | givinostat 0.051 | barasertib -0.071 | [6] -0.511 | epoxomicin -0.035 | [11] 0.198

ST3GAL1 (UniProt Q11201)
inactive: [2] -0.13 | Nexturastat A -0.051 | [3] 0.007 | volasertib -0.097 | epoxomicin -0.093 | [11] -0.077

SSR2 (UniProt P43308)
inactive: [5] -0.106 | [13] -0.272

SPIRE1 (UniProt Q08AE8)
inactive: [4] 0.013 | [10] -0.025 | Nexturastat A 0.31 | vemurafenib -0.011 | [5] -0.062 | givinostat 0.185 | barasertib -0.014 | [6] 0.125 | [13] -0.181 | epoxomicin -0.238 | [7] -0.116 | [9] -0.056 | [8] -0.026

SPRR2B (UniProt P35325)
inactive: Nexturastat A -0.058 | vemurafenib -0.384 | [5] -0.011 | givinostat 0.091 | barasertib -0.104 | [6] 0.009 | [13] -0.166 | epoxomicin 0.862 | [12] -0.115 | [9] 0.079 | rosiglitazone 0.279

SS18 (UniProt Q15532)
inactive: [4] -0.212 | [2] 0.065 | vemurafenib 0.521 | [3] -0.034 | [5] -0.004 | givinostat 0.037 | barasertib 0.13 | [6] 0.019 | volasertib -0.217 | [13] 0.171 | [12] -0.003 | [7] -0.165 | [9] 0.001 | rosiglitazone 0.1 | [11] -0.087 | [8] 0.187

SPPL3 (UniProt Q8TCT6)
inactive: [5] 0.018 | givinostat 0.014 | [12] -0.097
